Reference: PubChem BioAssay AID1259254 (NCATS, 2017)
Here is one part, drawn at random, of about 59,000 reagents tested. About 1,550 of them (2.6%) count as active. 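G2 share is only a proxy for re-replication; each gene was hit by three separate siRNAs, and active genes were retested.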 Unmarked entries are inactive. Reagents against one gene are numbered here. Not all columns of the deposit are shown. Reagent sequences are not shown. Not given: the amount of reagent.

- Aim: 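Finding genes that stop cells copying their DNA twice in one cycle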 (primary screen)
- Cell system: human HCT116 colorectal cancer cells
- Reagent: single siRNA against human genes
- Duration: 3 days
- Detection: 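Imaged Hoechst DNA stain sorts each cell into a cycle phase by DNA amount; per plate, G2 fraction set to 0% for non-targeting and 100% for GMNN siRNA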
- Scale: G2 robust z-score: higher = more G2 cells, more excess DNA replication
- Rule for the call: 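Active siRNAs have a G2 robust z of 5 or more median absolute deviations over the median, which in these data means about 38% or higher of GMNN control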

CBR4 (carbonyl reductase 4) #1 | G2 robust z-score: 0.523
CBR4 (carbonyl reductase 4) #2 | G2 robust z-score: -0.0713
CBR4 (carbonyl reductase 4) #3 | G2 robust z-score: 2.11
SACK1C (scaffolding CK1 anchoring protein C) #1 | G2 robust z-score: 2.46
SACK1C (scaffolding CK1 anchoring protein C) #2 | G2 robust z-score: 0.146
SACK1C (scaffolding CK1 anchoring protein C) #3 | G2 robust z-score: 0.397
DES (desmin) #1 | G2 robust z-score: -0.0731
DES (desmin) #2 | G2 robust z-score: -1.32
DES (desmin) #3 | G2 robust z-score: 0.439
NCLN (nicalin) #1 | G2 robust z-score: -0.793
NCLN (nicalin) #2 | G2 robust z-score: 1.97
NCLN (nicalin) #3 | G2 robust z-score: 2.52

Part of the list above in another layout:
Target gene,reagent no.,G2 robust z-score
SACK1C (scaffolding CK1 anchoring protein C),1,2.46
SACK1C (scaffolding CK1 anchoring protein C),2,0.146
